PubChem BioAssay AID504791 | Drosophila RNAi Screening Center, 2011

- Screen: 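Genes whose knock-down strengthens or weakens small-RNA reporter silencing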 (primary screen)
- System: Drosophila S2-derived reporter cells
- Reagent: long dsRNA against Drosophila genes, about 150-250 ng dsRNA per well (siRNA assay); about 80-120 ng (miRNA assay)
- Duration: about 5 days (siRNA assay); about 4 days (miRNA assay)
- Treatment: copper sulfate induction of reporters: 25 µM (siRNA assay); 200 mM stated (miRNA assay), 1-2 days before reading
- Measurement: 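Per-well ratio of Renilla over firefly light, expressed relative to that plate's average ratio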
- Rule for the call: 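First-pass picks had plate-scaled ratios over 1.5 for the siRNA assay, over 1.6 for the miRNA assay, or under 0.6; two distinct dsRNAs had to score alike on retest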
In all, the deposit lists about 23,000 reagents; this is a random part of those that have a named target and a result. In the full data, 199 (0.86%) are marked active. 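Plate-scaled ratios behind the calls are not deposited; printed light signals are raw; many rows marked increased or decreased are still called inactive.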 Reagent sequences are not shown. Not stated in the record: the direction of the score.

| gene | dsRNA | stable siRNA reporter change | miRNA reporter change | stable assay Renilla, run 1 (luminescence) | stable assay firefly, run 1 (luminescence) | call |
| --- | --- | --- | --- | --- | --- | --- |
| br (broad) | DRSC17691 | – | – | 8123 | 3.70e5 | inactive |
| br (broad) | DRSC17789 | – | – | 4751 | 2.35e5 | inactive |
| br (broad) | DRSC18743 | – | – | 5048 | 3.80e5 | inactive |
| br (broad) | DRSC18744 | – | – | 4031 | 2.00e5 | inactive |
| CG32267 | DRSC21561 | – | – | 8694 | 5.27e5 | inactive |
| Akt (Akt kinase) | DRSC14108 | – | – | 7618 | 3.56e5 | inactive |
| CG7342 | DRSC16230 | – | – | 8274 | 3.62e5 | inactive |
| CG30015 | DRSC05241 | – | – | 4579 | 3.55e5 | inactive |
| CG30015 | DRSC07027 | – | – | 7118 | 3.61e5 | inactive |
| CG30015 | DRSC07028 | – | – | 7315 | 3.49e5 | inactive |
| CG32986 | DRSC02509 | – | – | 7211 | 5.71e5 | inactive |
| Sec71 (Secretory 71) | DRSC01893 | – | – | 6586 | 3.13e5 | inactive |
| per (period) | DRSC18818 | – | – | 6122 | 3.48e5 | inactive |
| CG8419 | DRSC03087 | – | – | 6439 | 3.73e5 | inactive |
| kek4 (kekkon 4) | DRSC03220 | – | – | 12706 | 7.27e5 | inactive |
| CG16965 | DRSC02547 | – | – | 8150 | 5.07e5 | inactive |
| nemy (no extended memory) | DRSC05357 | – | – | 6204 | 4.67e5 | inactive |
| nemy (no extended memory) | DRSC07262 | reporter ratio lowered past the hit cutoff | – | 4343 | 5.40e5 | inactive |
| exp (expansion) | DRSC06313 | – | reporter ratio lowered past the hit cutoff | 4267 | 2.12e5 | inactive |
| Obp56d (Odorant-binding protein 56d) | DRSC06064 | – | reporter ratio lowered past the hit cutoff | 4972 | 2.47e5 | inactive |
| CG15605 | DRSC06558 | – | – | 6134 | 2.87e5 | inactive |
| CG32436 | DRSC11683 | – | – | 6175 | 3.70e5 | inactive |
| CG32436 | DRSC11796 | – | – | 6814 | 4.02e5 | inactive |
| mrj | DRSC22592 | – | – | 5882 | 6.26e5 | inactive |
| IFT57 (Intraflagellar transport 57) | DRSC00720 | – | – | 8166 | 4.33e5 | inactive |
| GCC185 (GRIP and coiled-coil domain containing 185 kDa) | DRSC15493 | – | reporter ratio lowered past the hit cutoff | 6471 | 4.67e5 | active |
| CG8838 | DRSC00712 | – | – | 32744 | 3.41e5 | inactive |
| Rrp5 (Ribosomal RNA Processing 5) | DRSC15862 | – | – | 8967 | 3.75e5 | inactive |
| CG18581 | DRSC10324 | – | reporter ratio raised past the hit cutoff | 7238 | 3.35e5 | inactive |
| CG3819 | DRSC10378 | – | – | 6899 | 4.82e5 | inactive |
| Kdm3 (Lysine demethylase 3) | DRSC16393 | – | – | 6075 | 3.10e5 | inactive |
| CG14105 | DRSC10107 | – | – | 6282 | 3.54e5 | inactive |
| TfIIFbeta (Transcription factor TFIIFbeta) | DRSC16884 | – | – | 5560 | 3.43e5 | inactive |
| TfIIFbeta (Transcription factor TFIIFbeta) | DRSC21447 | – | – | 8374 | 4.08e5 | inactive |

Limited to “stable assay Renilla, run 1 (luminescence)” (5 entries from above):
kek4 (kekkon 4) [DRSC03220]	12706
CG16965 [DRSC02547]	8150
nemy (no extended memory) [DRSC05357]	6204
nemy (no extended memory) [DRSC07262]	4343
exp (expansion) [DRSC06313]	4267
